Some of the results follow.

Chains of the proteins cited; added tags and fusions are not shown. Lines headed by an entry give the natural chain unless they say otherwise; changes in a name come on top.
UniProt Q66GS9: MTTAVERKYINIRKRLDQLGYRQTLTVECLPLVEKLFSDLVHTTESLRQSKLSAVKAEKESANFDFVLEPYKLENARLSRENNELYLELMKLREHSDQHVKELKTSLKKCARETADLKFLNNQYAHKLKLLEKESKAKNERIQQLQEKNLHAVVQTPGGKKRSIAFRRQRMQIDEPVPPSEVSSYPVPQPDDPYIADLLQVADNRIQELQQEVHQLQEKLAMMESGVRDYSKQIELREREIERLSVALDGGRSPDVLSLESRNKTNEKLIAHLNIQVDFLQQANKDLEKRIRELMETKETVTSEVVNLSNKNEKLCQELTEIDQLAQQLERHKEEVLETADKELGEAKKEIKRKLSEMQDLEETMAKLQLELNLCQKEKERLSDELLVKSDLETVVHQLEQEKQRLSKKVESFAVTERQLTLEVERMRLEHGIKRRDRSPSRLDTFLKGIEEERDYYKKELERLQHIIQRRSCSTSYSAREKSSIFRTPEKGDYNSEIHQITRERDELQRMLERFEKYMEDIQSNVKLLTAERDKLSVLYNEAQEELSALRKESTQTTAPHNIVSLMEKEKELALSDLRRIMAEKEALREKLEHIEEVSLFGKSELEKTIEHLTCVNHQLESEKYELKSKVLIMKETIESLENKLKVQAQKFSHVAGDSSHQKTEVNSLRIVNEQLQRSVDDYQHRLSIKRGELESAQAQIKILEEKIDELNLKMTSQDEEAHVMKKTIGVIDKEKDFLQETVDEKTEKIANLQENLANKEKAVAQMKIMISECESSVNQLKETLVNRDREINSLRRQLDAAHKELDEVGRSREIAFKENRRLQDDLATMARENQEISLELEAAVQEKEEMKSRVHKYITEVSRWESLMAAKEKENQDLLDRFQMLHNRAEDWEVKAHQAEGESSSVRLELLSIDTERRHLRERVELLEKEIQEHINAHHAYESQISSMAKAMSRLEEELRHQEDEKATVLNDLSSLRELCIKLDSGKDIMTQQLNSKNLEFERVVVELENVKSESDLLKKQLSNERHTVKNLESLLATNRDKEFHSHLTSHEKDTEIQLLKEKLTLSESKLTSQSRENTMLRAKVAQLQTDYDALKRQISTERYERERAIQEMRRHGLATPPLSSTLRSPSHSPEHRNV
UniProt Q96G28: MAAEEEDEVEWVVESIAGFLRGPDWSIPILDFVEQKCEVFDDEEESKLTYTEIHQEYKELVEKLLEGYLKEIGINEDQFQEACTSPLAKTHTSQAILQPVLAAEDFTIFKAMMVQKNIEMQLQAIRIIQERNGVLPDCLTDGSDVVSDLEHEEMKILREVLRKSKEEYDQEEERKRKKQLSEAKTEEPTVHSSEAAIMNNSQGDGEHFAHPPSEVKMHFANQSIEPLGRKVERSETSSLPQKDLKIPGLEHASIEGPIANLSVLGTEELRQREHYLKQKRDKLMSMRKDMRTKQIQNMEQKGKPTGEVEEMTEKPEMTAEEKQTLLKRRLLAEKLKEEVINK
UniProt Q99459: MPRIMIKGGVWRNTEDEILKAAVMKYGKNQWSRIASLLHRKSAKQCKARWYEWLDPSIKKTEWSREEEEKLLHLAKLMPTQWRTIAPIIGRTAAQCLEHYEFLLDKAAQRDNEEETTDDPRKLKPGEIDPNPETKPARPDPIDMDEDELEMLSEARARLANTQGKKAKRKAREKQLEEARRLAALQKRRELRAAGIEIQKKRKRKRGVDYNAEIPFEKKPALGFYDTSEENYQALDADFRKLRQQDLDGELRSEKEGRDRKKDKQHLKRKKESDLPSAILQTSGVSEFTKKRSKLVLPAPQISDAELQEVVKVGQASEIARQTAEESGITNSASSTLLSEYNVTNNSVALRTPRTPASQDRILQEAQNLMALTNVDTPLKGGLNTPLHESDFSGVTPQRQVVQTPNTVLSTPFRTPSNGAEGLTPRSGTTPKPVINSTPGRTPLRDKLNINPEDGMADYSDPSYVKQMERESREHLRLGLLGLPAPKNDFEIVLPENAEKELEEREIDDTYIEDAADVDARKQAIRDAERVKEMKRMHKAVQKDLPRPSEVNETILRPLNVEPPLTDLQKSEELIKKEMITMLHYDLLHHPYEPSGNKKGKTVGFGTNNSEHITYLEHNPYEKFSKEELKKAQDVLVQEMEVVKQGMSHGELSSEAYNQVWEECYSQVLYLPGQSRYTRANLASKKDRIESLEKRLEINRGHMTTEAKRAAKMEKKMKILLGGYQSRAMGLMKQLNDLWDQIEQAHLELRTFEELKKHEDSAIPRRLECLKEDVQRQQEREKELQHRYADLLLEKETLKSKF
UniProt P42773: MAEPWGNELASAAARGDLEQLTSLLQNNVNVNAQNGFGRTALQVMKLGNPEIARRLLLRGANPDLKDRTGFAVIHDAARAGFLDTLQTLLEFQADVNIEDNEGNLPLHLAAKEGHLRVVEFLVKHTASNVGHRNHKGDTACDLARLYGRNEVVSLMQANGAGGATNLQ
UniProt Q5VT06: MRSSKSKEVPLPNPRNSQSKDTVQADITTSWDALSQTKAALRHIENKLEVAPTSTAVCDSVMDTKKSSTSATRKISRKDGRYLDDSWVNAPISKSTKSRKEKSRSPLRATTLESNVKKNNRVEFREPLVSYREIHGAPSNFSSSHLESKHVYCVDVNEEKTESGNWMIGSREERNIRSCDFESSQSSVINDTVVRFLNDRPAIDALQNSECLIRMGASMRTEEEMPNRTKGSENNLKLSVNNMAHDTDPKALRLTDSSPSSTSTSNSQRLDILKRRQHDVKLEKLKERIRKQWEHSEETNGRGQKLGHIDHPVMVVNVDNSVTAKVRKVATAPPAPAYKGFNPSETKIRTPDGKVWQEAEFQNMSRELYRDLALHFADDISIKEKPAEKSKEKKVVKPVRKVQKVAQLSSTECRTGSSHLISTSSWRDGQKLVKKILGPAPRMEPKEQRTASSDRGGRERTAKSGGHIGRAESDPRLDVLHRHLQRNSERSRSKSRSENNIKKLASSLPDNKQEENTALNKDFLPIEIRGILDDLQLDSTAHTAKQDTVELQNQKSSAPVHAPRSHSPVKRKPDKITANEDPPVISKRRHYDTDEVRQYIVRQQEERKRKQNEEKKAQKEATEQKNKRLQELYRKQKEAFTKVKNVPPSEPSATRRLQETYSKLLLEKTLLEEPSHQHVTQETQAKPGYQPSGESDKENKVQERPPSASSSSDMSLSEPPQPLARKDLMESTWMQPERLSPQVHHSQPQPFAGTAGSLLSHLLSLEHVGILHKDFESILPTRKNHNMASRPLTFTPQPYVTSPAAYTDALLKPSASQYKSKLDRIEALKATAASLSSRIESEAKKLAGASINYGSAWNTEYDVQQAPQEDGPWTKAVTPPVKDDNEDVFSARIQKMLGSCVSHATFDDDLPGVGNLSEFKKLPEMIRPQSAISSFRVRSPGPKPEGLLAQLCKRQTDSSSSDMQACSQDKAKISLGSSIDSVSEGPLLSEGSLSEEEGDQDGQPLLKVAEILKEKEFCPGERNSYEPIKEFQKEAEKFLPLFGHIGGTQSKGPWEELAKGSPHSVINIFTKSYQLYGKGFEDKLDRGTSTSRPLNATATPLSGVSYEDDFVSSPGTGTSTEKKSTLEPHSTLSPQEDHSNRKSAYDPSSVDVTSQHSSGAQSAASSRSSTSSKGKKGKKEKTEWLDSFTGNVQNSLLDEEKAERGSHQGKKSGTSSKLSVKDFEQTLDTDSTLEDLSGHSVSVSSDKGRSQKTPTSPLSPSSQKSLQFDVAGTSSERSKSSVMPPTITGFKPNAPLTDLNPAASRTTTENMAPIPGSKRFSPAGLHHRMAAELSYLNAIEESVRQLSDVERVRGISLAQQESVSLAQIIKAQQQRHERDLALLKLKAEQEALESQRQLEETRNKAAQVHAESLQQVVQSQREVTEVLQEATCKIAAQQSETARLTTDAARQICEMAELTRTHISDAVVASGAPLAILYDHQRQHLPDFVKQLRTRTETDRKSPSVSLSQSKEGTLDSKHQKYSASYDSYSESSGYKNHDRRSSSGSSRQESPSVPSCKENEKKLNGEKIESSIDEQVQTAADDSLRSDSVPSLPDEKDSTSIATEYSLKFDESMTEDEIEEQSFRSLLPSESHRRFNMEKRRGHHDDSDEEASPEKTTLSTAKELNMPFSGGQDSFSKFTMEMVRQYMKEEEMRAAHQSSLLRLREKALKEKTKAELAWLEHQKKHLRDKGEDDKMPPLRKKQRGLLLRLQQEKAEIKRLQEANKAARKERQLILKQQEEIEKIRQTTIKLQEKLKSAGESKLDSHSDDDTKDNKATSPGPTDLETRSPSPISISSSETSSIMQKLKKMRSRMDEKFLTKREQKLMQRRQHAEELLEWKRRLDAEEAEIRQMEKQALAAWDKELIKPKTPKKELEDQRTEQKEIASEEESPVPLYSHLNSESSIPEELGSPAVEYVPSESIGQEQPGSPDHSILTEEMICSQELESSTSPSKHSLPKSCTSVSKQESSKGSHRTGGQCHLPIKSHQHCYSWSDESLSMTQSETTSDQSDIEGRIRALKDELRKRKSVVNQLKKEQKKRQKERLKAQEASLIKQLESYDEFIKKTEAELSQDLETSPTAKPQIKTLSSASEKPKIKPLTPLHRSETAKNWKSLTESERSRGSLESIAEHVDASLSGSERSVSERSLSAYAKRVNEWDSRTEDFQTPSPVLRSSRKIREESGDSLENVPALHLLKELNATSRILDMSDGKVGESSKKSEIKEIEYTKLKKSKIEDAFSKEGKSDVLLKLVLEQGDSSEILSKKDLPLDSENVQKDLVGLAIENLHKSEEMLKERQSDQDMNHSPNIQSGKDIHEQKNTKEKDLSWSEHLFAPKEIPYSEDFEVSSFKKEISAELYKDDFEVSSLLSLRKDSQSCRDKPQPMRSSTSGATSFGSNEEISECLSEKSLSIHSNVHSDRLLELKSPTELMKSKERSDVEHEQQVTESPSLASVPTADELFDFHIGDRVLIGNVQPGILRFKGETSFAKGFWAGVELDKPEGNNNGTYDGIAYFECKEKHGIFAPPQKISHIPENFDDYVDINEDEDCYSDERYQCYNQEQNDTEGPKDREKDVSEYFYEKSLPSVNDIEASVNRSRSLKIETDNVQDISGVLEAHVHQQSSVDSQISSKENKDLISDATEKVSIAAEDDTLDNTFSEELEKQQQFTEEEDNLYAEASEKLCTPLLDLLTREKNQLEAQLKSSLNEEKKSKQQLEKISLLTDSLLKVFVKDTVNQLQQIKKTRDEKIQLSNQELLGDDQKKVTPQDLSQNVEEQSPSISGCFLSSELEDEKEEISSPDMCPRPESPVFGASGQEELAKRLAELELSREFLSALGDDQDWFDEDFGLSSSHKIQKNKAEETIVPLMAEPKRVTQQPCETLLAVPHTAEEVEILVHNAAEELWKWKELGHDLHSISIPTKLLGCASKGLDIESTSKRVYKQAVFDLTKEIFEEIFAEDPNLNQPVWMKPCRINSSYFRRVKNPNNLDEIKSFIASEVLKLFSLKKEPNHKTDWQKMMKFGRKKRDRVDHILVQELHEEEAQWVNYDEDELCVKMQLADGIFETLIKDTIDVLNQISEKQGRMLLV
UniProt P26374: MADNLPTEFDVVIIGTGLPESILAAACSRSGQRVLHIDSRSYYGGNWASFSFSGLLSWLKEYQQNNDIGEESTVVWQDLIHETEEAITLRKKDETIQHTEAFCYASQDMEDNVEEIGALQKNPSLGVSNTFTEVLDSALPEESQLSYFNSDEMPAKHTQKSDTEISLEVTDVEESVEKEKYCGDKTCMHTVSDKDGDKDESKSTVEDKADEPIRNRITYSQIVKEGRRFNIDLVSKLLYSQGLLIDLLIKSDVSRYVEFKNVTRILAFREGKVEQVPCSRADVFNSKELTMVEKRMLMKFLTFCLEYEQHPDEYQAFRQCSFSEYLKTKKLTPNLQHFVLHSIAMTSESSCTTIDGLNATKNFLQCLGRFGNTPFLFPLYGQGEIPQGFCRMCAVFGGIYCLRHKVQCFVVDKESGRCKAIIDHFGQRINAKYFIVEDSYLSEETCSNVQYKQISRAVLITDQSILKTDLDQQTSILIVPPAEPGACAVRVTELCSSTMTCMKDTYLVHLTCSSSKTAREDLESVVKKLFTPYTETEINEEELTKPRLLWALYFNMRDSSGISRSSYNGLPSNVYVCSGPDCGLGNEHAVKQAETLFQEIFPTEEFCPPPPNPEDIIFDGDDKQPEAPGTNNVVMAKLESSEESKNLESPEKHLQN
UniProt P49918: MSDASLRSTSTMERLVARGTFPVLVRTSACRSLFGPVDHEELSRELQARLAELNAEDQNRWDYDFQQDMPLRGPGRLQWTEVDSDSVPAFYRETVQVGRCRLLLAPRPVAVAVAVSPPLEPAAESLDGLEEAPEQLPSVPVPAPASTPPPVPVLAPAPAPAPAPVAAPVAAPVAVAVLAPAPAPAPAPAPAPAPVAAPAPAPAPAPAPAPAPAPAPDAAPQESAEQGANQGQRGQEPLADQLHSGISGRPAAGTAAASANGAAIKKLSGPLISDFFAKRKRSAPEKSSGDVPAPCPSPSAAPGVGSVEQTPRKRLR

Compound in the first assay: Nc1ccccc1NC(=O)c1ccc(CNC(=O)OCc2cccnc2)cc1 [entinostat]
The experiment in a line: log2 fold change, soluble protein after heating vs DMSO (PISA); higher = thermal stabilisation; K562 cells, 10 uM, 30 min; active = over 0.2 and 3.5 SD of the protein, either way, in both replicates (recomputed). A digest of the protocol:
(§1)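 K562 cells at 2×10^6 cells/mL were treated with 10 μM compound for 30 min. Aliquots were heated for 3 min across 48°C-58°C, pooled, and extracted in PBS with 0.5% NP-40 at 4°C; soluble protein was the supernatant after 21,000xg for 90 min. Soluble protein was quantified by TMTpro 16plex LC-MS/MS with channel sums equalised, and reported as log2 fold change in thermal stability against DMSO controls, with values from duplicates.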
CENPE (UniProt Q02224): the log2 fold change was inactive: -0.153.
Same read-out and setting: next, CEP97 isoform 2 (UniProt Q8IW35): inactive: 0.004; CEP135 (UniProt Q66GS9): inactive: 0.04; CFAP36 isoform 2 (UniProt Q96G28): inactive: 0.023.
The same measure, in the same setting: the value for CEP120 (UniProt Q8N960) was inactive: 0.094; that for CEP170 (UniProt Q5SW79) was inactive: 0.005; that for CDC5L (UniProt Q99459) was inactive: -0.076.
On to CDKN2C (UniProt P42773), for which the log2 fold change was inactive: 0.015.
As for CDK4 (UniProt P11802), the log2 fold change is inactive: -0.006.
On the same count and under the same terms, the value for CDC42SE2 (UniProt Q9NRR3) was inactive: 0.038; that for CDC45 isoform 3 (UniProt O75419) was inactive: 0.06; that for CEP128 (UniProt Q6ZU80) was inactive: -0.112.
Same read-out and setting: next, CFAP97 (UniProt Q9P2B7): inactive: -0.039.
On the same count and under the same terms, the value for CENPJ (UniProt Q9HC77) was inactive: -0.219; that for CEP57 (UniProt Q86XR8) was inactive: -0.111; that for CDKAL1 (UniProt Q5VV42) was inactive: -0.024.
On to CHIC1 (UniProt Q5VXU3), for which the log2 fold change was inactive: -0.127.
Consider CEP350 (UniProt Q5VT06), for which the log2 fold change was inactive: 0.127.
On the same count and under the same terms, next, CEP131 (UniProt Q9UPN4): inactive: -0.033.
The same measure, in the same setting: next, CEBPZ (UniProt Q03701): inactive: -0.008; CHID1 (UniProt Q9BWS9): inactive: 0.011; CDC42SE1 (UniProt Q9NRR8): inactive: -0.042.
The same measure, in the same setting: next, CDK1 (UniProt P06493): inactive: 0; CHAF1A (UniProt Q13111): inactive: -0.141.
On to CHML (UniProt P26374), for which the log2 fold change is inactive: 0.017.
Same read-out and setting: next, CEP250 (UniProt Q9BV73): inactive: -0.123; CENPO (UniProt Q9BU64): inactive: -0.23.
For the target CENPH (UniProt Q9H3R5), the log2 fold change is inactive: -0.01.
On the same count and under the same terms, the value for CHMP4B (UniProt Q9H444) was inactive: 0.108.
The same measure, in the same setting: next, CENPU (UniProt Q71F23): inactive: -0.161; CHCHD6 (UniProt Q9BRQ6): inactive: -0.003; CFB (UniProt P00751): inactive: -0.277.
As for CDK2AP1 (UniProt O14519), the log2 fold change is inactive: 0.12.
On the same count and under the same terms, next, CEP152 (UniProt O94986): inactive: -0.262; CHCHD7 isoform 4 (UniProt Q9BUK0): inactive: 0.241.
Same read-out and setting: the value for CEND1 (UniProt Q8N111) was inactive: 0.102.
Same read-out and setting: the value for CDC42EP4 (UniProt Q9H3Q1) was inactive: 0.001.
As for CDKN1C (UniProt P49918), the log2 fold change was inactive: -0.002.
With CDKN1B (UniProt P46527), the log2 fold change was inactive: 0.046.

Compound in another assay: O=C(CCCCCCC(=O)Nc1ccccc1)NO [vorinostat]
The description is as above. The gist of the method:
as §1
For the target CENPE (UniProt Q02224), the log2 fold change was inactive: -0.238.
Still for that read-out and setting: the value for CEP135 (UniProt Q66GS9) was inactive: -0.111.
With CFAP36 isoform 2 (UniProt Q96G28), the log2 fold change is inactive: -0.014.
The same measure, in the same setting: next, CEP170 (UniProt Q5SW79): inactive: -0.002; CDC5L (UniProt Q99459): inactive: -0.001; CDKN2C (UniProt P42773): inactive: -0.179.
With CDC45 isoform 3 (UniProt O75419), the log2 fold change was inactive: 0.012.
The same measure, in the same setting: the value for CFAP97 (UniProt Q9P2B7) was inactive: 0.09; that for CEP57 (UniProt Q86XR8) was inactive: 0.077.
Same read-out and setting: next, CDKAL1 (UniProt Q5VV42): inactive: -0.112; CHIC1 (UniProt Q5VXU3): inactive: 0.111.
The same measure, in the same setting: next, CEP350 (UniProt Q5VT06): inactive: -0.052; CEP131 (UniProt Q9UPN4): inactive: 0.034; CEBPZ (UniProt Q03701): inactive: 0.185.
On to CHID1 (UniProt Q9BWS9), for which the log2 fold change is inactive: -0.016.
The same measure, in the same setting: the value for CDK1 (UniProt P06493) was inactive: 0.05; that for CHAF1A (UniProt Q13111) was inactive: 0.121.
The same measure, in the same setting: the value for CHML (UniProt P26374) was inactive: 0.012; that for CHMP4B (UniProt Q9H444) was inactive: 0.024; that for CHCHD6 (UniProt Q9BRQ6) was inactive: 0.001.
Still for that read-out and setting: next, CFB (UniProt P00751): inactive: -0.057; CDK2AP1 (UniProt O14519): inactive: 0.158; CEP152 (UniProt O94986): inactive: -0.077.
With CHCHD7 isoform 4 (UniProt Q9BUK0), the log2 fold change is inactive: -0.063.
Still for that read-out and setting: the value for CDC42EP4 (UniProt Q9H3Q1) was inactive: 0.171; that for CDKN1C (UniProt P49918) was inactive: 0.015; that for CDKN1B (UniProt P46527) was inactive: -0.01.

Compound in a further assay: O=C(CCCCCCNC(=O)c1cnc(N(c2ccccc2)c2ccccc2Cl)nc1)NO [citarinostat]
The assay is described as above. The gist of the method: as §1
Regarding CEP97 isoform 2 (UniProt Q8IW35), the log2 fold change is inactive: 0.114.
Same read-out and setting: next, CEP135 (UniProt Q66GS9): inactive: 0.167; CFAP36 isoform 2 (UniProt Q96G28): inactive: -0.022.
On the same count and under the same terms, next, CEP170 (UniProt Q5SW79): inactive: -0.038; CDC5L (UniProt Q99459): inactive: -0.122.
On the same count and under the same terms, the value for CDKN2C (UniProt P42773) was inactive: 0.051; that for CDK4 (UniProt P11802) was inactive: 0.076.
Turning to CDC42SE2 (UniProt Q9NRR3), the log2 fold change is inactive: 0.033.
Take CDC45 isoform 3 (UniProt O75419): the log2 fold change was inactive: 0.133.
On the same count and under the same terms, the value for CEP128 (UniProt Q6ZU80) was inactive: -0.087; that for CDKAL1 (UniProt Q5VV42) was inactive: 0.043.
Same read-out and setting: next, CHIC1 (UniProt Q5VXU3): inactive: -0.04; CEP350 (UniProt Q5VT06): inactive: -0.023.
Still for that read-out and setting: next, CHID1 (UniProt Q9BWS9): inactive: 0.068; CDC42SE1 (UniProt Q9NRR8): inactive: -0.048; CDK1 (UniProt P06493): inactive: 0.051.
For the target CHAF1A (UniProt Q13111), the log2 fold change was inactive: 0.005.
Same read-out and setting: next, CHML (UniProt P26374): inactive: 0.031; CEP250 (UniProt Q9BV73): inactive: 0.085.
The same measure, in the same setting: the value for CENPO (UniProt Q9BU64) was inactive: -0.029; that for CENPH (UniProt Q9H3R5) was inactive: -0.029.
Still for that read-out and setting: the value for CHMP4B (UniProt Q9H444) was inactive: -0.044.
Turning to CFB (UniProt P00751), the log2 fold change is inactive: -0.052.
Still for that read-out and setting: next, CDK2AP1 (UniProt O14519): inactive: -0.006; CEP152 (UniProt O94986): inactive: -0.044; CHCHD7 isoform 4 (UniProt Q9BUK0): inactive: 0.047.
The same measure, in the same setting: the value for CDC42EP4 (UniProt Q9H3Q1) was inactive: -0.011.
Still for that read-out and setting: next, CDKN1C (UniProt P49918): inactive: -0.032.

For the origin of these results see the supplement of paper PMC10849652.
